Assay results as given in patent US20200009149A1.
These are yes or no findings as the source states them, for the method shown. Binding seen in cells or lysates may run through a third protein. Some binding calls cover weakened binding; strength is not graded here.

Sequences of proteins named here, by UniProt entry; tags and fusion partners are left off. A change or cut given only in a name is not applied to a line headed by its entry.
UniProt P30520: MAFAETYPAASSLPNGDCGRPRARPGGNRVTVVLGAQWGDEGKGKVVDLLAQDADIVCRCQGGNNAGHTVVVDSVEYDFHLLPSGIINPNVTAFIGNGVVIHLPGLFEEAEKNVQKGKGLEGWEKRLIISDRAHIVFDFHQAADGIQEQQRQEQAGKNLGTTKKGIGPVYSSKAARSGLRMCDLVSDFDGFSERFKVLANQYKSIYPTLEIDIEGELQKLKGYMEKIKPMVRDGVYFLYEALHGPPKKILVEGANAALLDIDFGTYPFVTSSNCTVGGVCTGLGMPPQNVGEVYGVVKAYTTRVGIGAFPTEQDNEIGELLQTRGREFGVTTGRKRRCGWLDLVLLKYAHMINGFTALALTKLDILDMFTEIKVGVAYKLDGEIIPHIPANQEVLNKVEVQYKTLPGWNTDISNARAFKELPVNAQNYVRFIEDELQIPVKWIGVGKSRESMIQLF

Target: hADSS-myc-flag (pCMV6 hADSS-myc-flag, Origene RC204256) (human) (UniProt P30520)
Experiment: co-immunoprecipitation from transfected HEK 293 cell lysate, IP with KCTD13 antibody, immunoblot with myc antibody

binding: binds
B1: human KCTD13 (expressed from plasmid V82 hKCTD13_IRESPuro in HEK cells) (protein, UniProt Q8WZ19 1-329, looked up)
chain: MSAEASGPAAAAAPSLEAPKPSGLEPGPAAYGLKPLTPNSKYVKLNVGGSLHYTTLRTLTGQDTMLKAMFSGRVEVLTDAGGWVLIDRSGRHFGTILNYLRDGSVPLPESTRELGELLGEARYYLVQGLIEDCQLALQQKRETLSPLCLIPMVTSPREEQQLLASTSKPVVKLLHNRSNNKYSYTSTSDDNLLKNIELFDKLALRFHGRLLFLKDVLGDEICCWSFYGQGRKIAEVCCTSIVYATEKKQTKVEFPEARIFEETLNILIYETPRGPDPALLEATGGAAGAGGAGRGEDEENREHRVRRIHVRRHITHDERPHGQQIVFKD
